In patent US20100267952A1, “USE OF NOVEL COMPOUND HAVING AFFINITY FOR AMYLOID, AND PROCESS FOR PRODUCTION OF THE SAME” (NIHON MEDI-PHYSICS CO., LTD., priority 2007, published 2010):
Some results were stated once for a whole list of compounds, not compound by compound.

By UniProt entry, the sequences of proteins in these tests, tags left out. Residues count along the entry.
UniProt P05067, 672-711 limits assumed: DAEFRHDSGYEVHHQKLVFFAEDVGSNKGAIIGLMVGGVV

Target: T1, amyloid (aggregated Aβ1-40) (Homo sapiens, UniProt P05067)
T1 construct: Aβ1-40 (Peptide Institute, INC.) was dissolved in phosphate buffer (pH 7.4); purchased Peptide Institute, INC
Assay: Measurement of affinity with amyloid: inhibition of [125I]3′-I-BTA-0 binding
Conditions: [125I]3′-I-BTA-0 400 pmol/L, amyloid 1 μmol/L, 22° C., 3 hours
Procedure: Affinity of the present compounds with amyloid was examined by the following in vitro binding tests.
(1) Aβ1-40 (Peptide Institute, INC.) was dissolved in phosphate buffer (pH 7.4) and shaken at 37° C. for 62-72 hours, to obtain a 1 mg/mL suspension of aggregated Aβ (hereinafter referred to as amyloid suspension in this Example).
(3) According to the method described in a literature (Wang, Y., et al., J. Labeled Compounds Radiopharmaceut. 44, 5239 (2001)), [^125I]2-(3′-iodo-4′-aminophenyl)benzothiazole (hereinafter referred to as […]) was prepared from a labeling precursor 2-(4′-aminophenyl)benzothiazole, and dissolved in ethanol.
(5) Samples in which [^125I]3′-I-BTA-0, each compound for evaluation and amyloid were dissolved in a 0.1% bovine serum albumin-containing phosphate buffer (pH 7.4) at final concentrations shown in Table 1-2 were prepared. The resulting samples were filled in each well (about 0.3 mL in volume) of a 96-well microplate.
(6) The microplate filled with the sample solutions was shaken at a given rate (400 rpm) at 22° C. for 3 hours. Then, each sample solution was filtered through a glass fiber filter (trade name: Mulutiscreen™-FC, manufactured by Millipore), to separate the [^125I]3′-I-BTA-0 attached to amyloid from the free [^125I]3′-I-BTA-0.
(7) The glass fiber filter used for the filtration of each sample solution was washed with a 0.1% bovine serum albumin-containing phosphate buffer (pH 7.4) (0.5 mL×5), and radioactivity of the glass fiber filter was measured with an autowell gamma system (manufactured by Aloka, Type: ARC-301B).
(8) Separately, a solution of containing 15 μmol/L of 6-Me-BTA-2, […] of [^125I]3′-I-BTA-0 and 1 μmol/L of Aβ1-40 were prepared and subjected to the same procedures as described above in (6) and (7) to measure a radioactivity level. The measured radioactivity level was defined as the background radioactivity level, and used in the calculation of the inhibition ratio (hereinafter referred to as BG).
(9) Using the radioactivity levels measured above in (7) and (8), the inhibition ratio was determined by the following formula (1-1).
A graph in which values converted by probit transformation from the obtained inhibition ratios were plotted relative to logarithms of concentrations of compounds for evaluation was prepared to obtain an approximate straight line by the least square method. Using the line, the concentration of each compound for evaluation was determined, at which the radioactivity level is half of the level of the sample free from each compound for evaluation, and was defined as a 50% inhibition concentration of each compound (hereinafter referred to as IC50% value). Using the value as an indicator, affinity of each compound for evaluation with amyloid (aggregated Aβ1-40) was evaluated.

Structure (SMILES)	IC50 [nM]
FCCCOc1ccc(-c2cn3cc(Br)ccc3n2)cc1 [Compound I-1, 6-bromo-2-[4′-(3″-fluoropropoxy)phenyl]imidazo[1,2-a]pyridine]	< 100
FCCCOc1ccc(-c2cn3cc(I)ccc3n2)cc1 [Compound I-2, 2-[4′-(3″-fluoropropoxy)phenyl]-6-iodoimidazo[1,2-a]pyridine]	< 100
FCCOc1ccc(-c2cn3cc(Br)ccc3n2)cc1 [Compound I-3, 6-bromo-2-[4′-(2″-fluoroethoxy)phenyl]imidazo[1,2-a]pyridine]	< 100
FCCOc1ccc(-c2cn3cc(I)ccc3n2)cc1 [Compound I-4, 2-[4′-(2″-fluoroethoxy)phenyl]-6-iodoimidazo[1,2-a]pyridine]	< 100
FCCCOc1ccc(-c2cn3cc(I)cnc3n2)cc1 [Compound I-5, 2-[4′-(3″-fluoropropoxy)phenyl]-6-iodoimidazo[1,2-a]pyrimidine]	< 100
